The list shows only some results of the screen, not a fair sample: it gathers tests that were run many times, whatever their T/C, doses with no T/C, and many T/C values between a quarter and a half above the control. Other doses and runs of a compound stand elsewhere. T/C is the treated group as % of the vehicle group. Some entries give survivors of the animals treated and no T/C: the source files T/C as zero there, which appears to mark a toxic dose or a test without result, not a measured value. Some survivor counts are full or nearly so, which does not show that the dose was tolerated: survival well below the control is almost never listed, so the zero probably covers shortened survival too. Counts of survivors are from the toxicity check (mostly the fifth day) where no day follows; animals may have died later. Schedules are NCI's codes, read here as Q, the interval in days (D) or hours (H), X, the number of doses. Some schedule codes hold Z or #, which are not explained here. Some entries were tested several times; the results are listed from low to high. Where survival is the endpoint, this PubChem deposit counts one and a half times the control or more as active, and values a quarter to a half above the control carry no call in these data; other NCI protocols may use other cut-offs. Some T/C values carry the count of animals alive at the toxicity check (mostly the fifth day); without a count, all were alive then.

The assay has as its system L1210 leukemia ip in BDF1 mice, survival T/C. Briefly: NCI In Vivo Anticancer Drug Screen. Data for tumor model L1210 Leukemia (intraperitoneal) in B6D2F1 (BDF1) mice. To be noted: T/C endpoint: mean survival time, higher T/C = longer survival.
[1] abbreviates: dose: 12.5 mg/kg/injection, schedule: Q04DX003 (ip), vehicle: saline.
The mark [2] stands for this setting: dose: 50.0 mg/kg/injection, schedule: Q04DX003 (ip), vehicle: saline.
Where [3] appears, read: dose: 100.0 mg/kg/injection, schedule: Q04DX003 (ip), vehicle: saline.
Where [4] appears, read: dose: 200.0 mg/kg/injection, schedule: Q04DX003 (ip), vehicle: saline.
[5] abbreviates: dose: 400.0 mg/kg/injection, schedule: Q04DX003 (ip), vehicle: saline.
The mark [6] stands for this setting: dose: 200.0 mg/kg/injection, schedule: Q04DX003 (ip), vehicle: Klucel (hydroxypropylcellulose) (HPC).

As for `Cc1cc(C[P+](c2ccccc2)(c2ccccc2)c2ccccc2)c(C[P+](c2ccccc2)(c2ccccc2)c2ccccc2)cc1C`, the survivor count by setting is: (dose: 12.0 mg/kg/injection, schedule: Q01DX009 (ip), vehicle: saline) 1 of 6; under setting [1], 2 of 6; (dose: 25.0 mg/kg/injection, schedule: Q04DX003 (ip), vehicle: saline) 0 of 6; under setting [2], 0 of 6; under setting [3], 0 of 6; under setting [4], 0 of 6. For the same molecule, the survivor count under setting [5] is reported as 0 of 6.

For `OCC1(CO)COC(c2ccccc2)OC1`, the survivor count under setting [6] was 1 of 6.

As to `Cc1[nH]c(=S)[nH]c(=O)c1CC(O)c1ccccc1` (stereo not drawn), the survivor count under setting [6] is listed as 6 of 6.

On to `CCCCn1ccnc1C`, for which the T/C runs as follows: under setting [1], 145 % of control; under setting [3], 92 [4 of 6 alive] and 136 % of control. Moreover, the survivor count was 1 of 6 under setting [2]; 0 of 6 and 2 of 6 under setting [3]; 0 of 6 under setting [4]; 0 of 6 under setting [5].

In the case of `CN=C(NC)NN`, the survivor count is recorded as 6 of 6 (dose: 15.0 mg/kg/injection, schedule: Q01DX Z (ip), vehicle: methylcellulose (MC)); 2 of 6 (dose: 250.0 mg/kg/injection, schedule: Q01DX Z (oral), vehicle: methylcellulose (MC)); 3 of 6 (dose: 500.0 mg/kg/injection, schedule: Q01DX Z (oral), vehicle: methylcellulose (MC)); 3 of 6 (dose: 750.0 mg/kg/injection, schedule: Q01DX Z (oral), vehicle: methylcellulose (MC)); 1 of 6 (dose: 1500.0 mg/kg/injection, schedule: Q01DX Z (oral), vehicle: methylcellulose (MC)). Moreover, the T/C (dose: 120.0 mg/kg/injection, schedule: Q01DX Z (ip), vehicle: methylcellulose (MC)) was 145 % of control.

In the case of `CCCC(C)Cc1ccc(C(=O)O)cc1` (stereo not drawn), the survivor count (dose: 400.0 mg/kg/injection, schedule: Q01DX009 (ip), vehicle: Klucel (hydroxypropylcellulose) (HPC)) was 1 of 6.

As for `[CH3][Sn]([CH3])([Br])[CH2]CC[CH2][Sn]([CH3])([CH3])[Br]`, the survivor count reads like this: (dose: 6.25 mg/kg/injection, schedule: Q01DX009 (ip), vehicle: saline) 0 of 3; (dose: 12.5 mg/kg/injection, schedule: Q01DX009 (ip), vehicle: saline) 0 of 3; (dose: 25.0 mg/kg/injection, schedule: Q01DX009 (ip), vehicle: saline) 0 of 3; (dose: 100.0 mg/kg/injection, schedule: Q01DX009 (ip), vehicle: saline) 0 of 3; (dose: 200.0 mg/kg/injection, schedule: Q01DX009 (ip), vehicle: saline) 0 of 3; (dose: 400.0 mg/kg/injection, schedule: Q01DX009 (ip), vehicle: saline) 0 of 3.

(Values after PubChem BioAssay AID248 (DTP/NCI, 2004).)
